These are yes or no findings as the source states them, for the method shown. Binding can be weak; no strength is given.
Biological target: Cyno Sema3A (cyno)
Assay: biosensor GLM chip (BioRad), kinetic binding assay

binding: binds
B1: Antibody of the invention (clone I) (antibody, human IgG1, kappa, L234A L235A, V domains shown)
VH: EVQLVESGGGLVQPGGSLRLSCAASGFTFSSYYMSWVRQAPGKGLEWVSTIIKSGGYAYYPDSVKDRFTISRDNSKNTLYLQMSSLRAEDTAVYYCVRGGQGAMDYWGQGTTVTVSS
VL: EIVLTQSPATLSLSPGERATLSCRASQSIGDYLHWYQQKPGQAPRLLIKYASQSISGIPARFSGSGSGTDFTLTITSLEPEDFAVYYCQQGYSFPYTFGGGTKLEIKR
